# Article PMC12589557
# Chains of the proteins cited; added tags and fusions are not shown. Lines headed by an entry give the natural chain unless they say otherwise; changes in a name come on top.
# UniProt P61956: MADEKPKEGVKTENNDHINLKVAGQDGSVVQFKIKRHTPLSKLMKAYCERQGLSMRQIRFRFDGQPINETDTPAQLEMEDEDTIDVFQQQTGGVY
# UniProt Q12824: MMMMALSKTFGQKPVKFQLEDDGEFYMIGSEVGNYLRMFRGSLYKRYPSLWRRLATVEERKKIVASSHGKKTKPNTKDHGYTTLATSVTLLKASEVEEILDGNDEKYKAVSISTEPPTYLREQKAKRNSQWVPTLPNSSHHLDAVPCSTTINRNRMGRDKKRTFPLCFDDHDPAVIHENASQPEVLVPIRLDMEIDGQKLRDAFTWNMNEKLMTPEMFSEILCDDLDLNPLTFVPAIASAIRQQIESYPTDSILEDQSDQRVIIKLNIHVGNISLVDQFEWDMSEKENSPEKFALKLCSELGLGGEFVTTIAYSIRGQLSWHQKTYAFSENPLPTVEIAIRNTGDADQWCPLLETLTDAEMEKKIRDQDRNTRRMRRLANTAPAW
# UniProt Q969G3: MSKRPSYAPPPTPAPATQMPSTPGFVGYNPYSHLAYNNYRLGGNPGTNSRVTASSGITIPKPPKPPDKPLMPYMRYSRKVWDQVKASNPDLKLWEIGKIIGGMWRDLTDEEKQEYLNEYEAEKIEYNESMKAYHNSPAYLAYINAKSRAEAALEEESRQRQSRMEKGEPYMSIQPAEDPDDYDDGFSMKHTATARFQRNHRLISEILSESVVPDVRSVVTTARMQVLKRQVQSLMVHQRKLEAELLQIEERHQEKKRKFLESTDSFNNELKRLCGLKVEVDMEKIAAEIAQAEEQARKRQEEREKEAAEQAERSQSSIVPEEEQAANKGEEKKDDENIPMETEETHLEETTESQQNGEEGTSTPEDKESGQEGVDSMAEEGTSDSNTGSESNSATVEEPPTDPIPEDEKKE
# These are yes or no findings as the source states them, for the method shown. In cells and extracts the contact can be indirect. Binding can be weak; no strength is given.
# Target: SUMO2 (UniProt P61956)
# Assay: co-IP; SUMO-2/3 affinity beads on nuclear lysate of HS-SY-II and Yamato cells transfected with 6His-SUMO2; untreated or 100 nM TAK-981 for 36 h; IP lysis buffer with NEM; 4 C overnight; IgG control beads
row,binding,Substance
1,binds,SMARCB1 (BAF47) (from UniProt Q12824 1-385)
2,binds,SMARCE1 (from UniProt Q969G3 1-411)
